At least one compound was matched to its structure with a doubt left.
How the values were obtained:
LN-229 = test: Clonogenic assay with TMZ; type: cell-based, human; conditions: at the lowest concentration tested (2 mgml^−1), 10 days
Tu-2449 = test: Clonogenic assay with TMZ; type: cell-based, mouse; conditions: up to a concentration of 100 mgml^−1
[1] = tested on: glioblastoma multiforme (GBM); conditions: cited from earlier work
U-87MG = test: Clonogenic assay with TMZ; type: cell-based, human; conditions: at the lowest concentration tested (2 mgml^−1), 10 days
8-MG-BA = test: Clonogenic assay with TMZ; type: cell-based, human; conditions: at the lowest concentration tested (2 mgml^−1), 10 days
LN-18 = test: Clonogenic assay with TMZ; type: cell-based, human; conditions: LN-18 (expresses MGMT); up to a concentration of 100 mgml^−1

Compound: Cn1nnc2c(C(N)=O)ncn2c1=O [TMZ, Temozolomide]
- sensitivity to TMZ by clonogenic assay (LN-229): very sensitive
- sensitivity to TMZ by clonogenic assay (Tu-2449): resistant
- median survival ([1]; GBM patients, MGMT promoter methylated): 21.7 months
- median overall survival ([1]; newly diagnosed GBM patients receiving TMZ and radiation in addition to resection, Stupp study): approximately 14.6 months
- sensitivity to TMZ by clonogenic assay (U-87MG): very sensitive
- sensitivity to TMZ by clonogenic assay (8-MG-BA): very sensitive
- sensitivity to TMZ by clonogenic assay (LN-18): more resistant
